Measurements: article PMC6344871

Sequences of proteins named here, by UniProt entry; tags and fusion partners are left off.
UniProt Q96J02: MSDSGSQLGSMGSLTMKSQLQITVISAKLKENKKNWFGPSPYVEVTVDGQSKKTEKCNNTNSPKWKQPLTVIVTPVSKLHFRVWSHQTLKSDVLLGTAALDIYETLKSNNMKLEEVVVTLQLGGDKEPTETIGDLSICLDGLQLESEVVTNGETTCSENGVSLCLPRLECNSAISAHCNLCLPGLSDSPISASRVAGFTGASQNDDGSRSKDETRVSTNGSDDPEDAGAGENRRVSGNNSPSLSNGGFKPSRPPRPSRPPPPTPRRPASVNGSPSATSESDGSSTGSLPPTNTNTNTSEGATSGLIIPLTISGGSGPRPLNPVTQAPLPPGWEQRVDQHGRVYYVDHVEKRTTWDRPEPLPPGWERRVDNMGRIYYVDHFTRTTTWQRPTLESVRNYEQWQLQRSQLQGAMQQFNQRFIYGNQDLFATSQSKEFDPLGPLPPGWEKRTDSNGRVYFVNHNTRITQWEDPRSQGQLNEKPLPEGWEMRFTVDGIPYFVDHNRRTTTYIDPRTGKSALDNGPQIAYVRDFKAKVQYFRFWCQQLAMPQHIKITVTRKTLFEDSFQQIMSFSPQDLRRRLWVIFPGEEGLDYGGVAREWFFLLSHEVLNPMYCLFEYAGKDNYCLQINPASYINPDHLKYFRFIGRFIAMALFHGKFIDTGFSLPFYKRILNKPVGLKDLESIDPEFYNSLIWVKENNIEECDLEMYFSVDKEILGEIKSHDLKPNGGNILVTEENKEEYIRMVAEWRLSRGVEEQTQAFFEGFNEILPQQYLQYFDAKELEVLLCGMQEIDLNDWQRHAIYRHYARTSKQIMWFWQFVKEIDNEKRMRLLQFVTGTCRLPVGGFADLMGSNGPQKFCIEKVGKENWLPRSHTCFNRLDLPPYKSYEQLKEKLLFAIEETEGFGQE
UniProt P16403: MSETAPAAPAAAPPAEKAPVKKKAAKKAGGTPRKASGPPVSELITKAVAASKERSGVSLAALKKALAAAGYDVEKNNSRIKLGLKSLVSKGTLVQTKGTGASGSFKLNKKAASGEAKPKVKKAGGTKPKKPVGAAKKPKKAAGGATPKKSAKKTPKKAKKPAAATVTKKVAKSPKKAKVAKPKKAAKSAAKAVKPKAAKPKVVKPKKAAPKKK

Biological target: ITCH (human (endogenous in MDA-MB-231)) (UniProt Q96J02)
Test: affinity purification with mass spectrometry; IP with anti-ITCH antibody (BD Biosciences) and protein G beads from MDA-MB-231 lysate (50 mg total protein; 20 mM Tris-HCl pH 7.3, 300 mM KCl, 0.5% Triton); SDS-PAGE bands excised, digested, LC-MS/MS; unspecific mouse IgG as control

binding: binds
Substance: linker histone protein H1.2 (from UniProt P16403 1-213)

These are yes or no findings as the source states them, for the method shown. Binding seen in cells or lysates may run through a third protein. These calls come from enrichment with a bait or labelling near it, and not all partners need be listed.
